{"source": "patent US8778881B2", "about": "(priority 2004, dated 2014)", "biological_target": "T1, human oxytocin (hOT) receptor (Homo sapiens, UniProt P30559)", "T1 construct": "expressed in transfected cells", "T1 sequence (P30559 1-389)": "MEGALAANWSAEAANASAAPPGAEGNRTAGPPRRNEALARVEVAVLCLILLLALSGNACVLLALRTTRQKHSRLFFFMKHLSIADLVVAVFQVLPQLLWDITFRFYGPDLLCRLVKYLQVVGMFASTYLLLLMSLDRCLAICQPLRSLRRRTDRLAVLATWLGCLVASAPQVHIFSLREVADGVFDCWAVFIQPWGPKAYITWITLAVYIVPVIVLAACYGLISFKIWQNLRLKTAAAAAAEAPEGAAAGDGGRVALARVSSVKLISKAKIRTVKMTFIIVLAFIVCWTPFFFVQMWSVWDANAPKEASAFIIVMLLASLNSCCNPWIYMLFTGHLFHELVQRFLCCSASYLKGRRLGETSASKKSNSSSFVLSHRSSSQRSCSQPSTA", "experiment": "luciferase-based transcriptional reporter assay expressing the human oxytocin (hOT) receptor, for selectivity", "type": "cell-based", "settings": "agonist efficacy at the hOT receptor compared to AVP; ratio not determined", "protocol": "Agonist activity of compounds on the hV1a receptor was determined in a transcriptional reporter assay by transiently transfecting a hV1a receptor expression DNA into HEK-293 cells in concert with a reporter DNA containing intracellular calcium responsive promoter elements regulating expression of firefly luciferase. See Boss, V., Talpade, D. J., Murphy, T. J. J. Biol. Chem. 1996, May 3; 271(18), 10429-10432 for further guidance on this assay. […] To determine selectivity, compounds were tested in luciferase-based transcriptional reporter assays expressing the human oxytocin (hOT) receptor. Assays for other receptors (hV2, hV1b, rat V1a and rat V2) were also conducted.\nThe EC50 value given is the geometric mean expressed in nanomol/L (nM). Selectivity values are given as EC50 ratios.", "note": "Not every detail of the peptide structures is certain; ends, links or a residue may be inferred. Bridge positions count the residues as written; N and C are the ends. Square brackets hold non-standard residues; d marks the D form. Peptide text beside a SMILES is read from it. * marks the point of attachment. Orn = NCCC[C@H](N)C(=O)O; X2 = CC(O)CN*", "data": [{"smiles": "CC[C@H](C)[C@@H]1NC(=O)[C@H](Cc2ccccc2)NC(=O)[C@@H](N)CSSC[C@@H](C(=O)N2CCC[C@H]2C(=O)N[C@@H](CCCN)C(=O)NCC(N)=O)NC(=O)[C@H](CC(N)=O)NC(=O)[C@H](CC(=O)NCC(C)O)NC1=O", "note": "(stereo partly shown) [Compound 28] (H-CFID(X2)NCP[Orn]G-NH2; disulfide 1-6)", "values": [{"measurement": "selectivity hOT/hV1a (class symbol)", "value": "+ (selective hV1a receptor agonist; EC50 hOT/hV1a ratio not determined due to very low agonist efficacy (<30% compared to AVP) at the hOT receptor)"}]}]}
